{"sequences": {"note": "By UniProt entry, the sequences of proteins in these tests, tags left out. Where a name states a change or a piece, a line headed by the entry shows the natural chain unless it says otherwise.", "UniProt Q15116": "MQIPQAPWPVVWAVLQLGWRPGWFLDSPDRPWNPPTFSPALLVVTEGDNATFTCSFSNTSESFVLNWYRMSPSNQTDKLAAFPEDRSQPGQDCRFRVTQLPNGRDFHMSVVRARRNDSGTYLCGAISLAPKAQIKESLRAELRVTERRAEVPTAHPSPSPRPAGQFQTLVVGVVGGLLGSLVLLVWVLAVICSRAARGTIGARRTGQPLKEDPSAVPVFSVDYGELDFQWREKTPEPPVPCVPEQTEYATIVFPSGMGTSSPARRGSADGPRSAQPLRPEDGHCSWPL"}, "source": "patent US20180289802A1", "binders": {"B1": {"name": "PD1AB-6 Fab (Fab, V domains shown)", "VH": "EVQLVQSGAEVKKPGATVKISCKASGFNIKDTYMHWVQQAPGKGLEWMGRIDPANGDRKYDPKFQGRVTITADTSTDTAYMELSSLRSEDTAVYYCARSGPVYYYGSSYVMDYWGQGTTVTVSS", "VL": "DIVMTQSPDSLAVSLGERATINCKSGQSVLYSSNQKNFLAWYQQKPGQPPKLLIYWASTRESGVPDRFSGSGSGTDFTLTISSLQAEDVAVYYCHQYLYSWTFGQGTKLEIKR"}}, "key": {"[1]": {"target": "human PD-1 extracellular domain (crystal structure construct) (human) (UniProt Q15116)", "test": "crystal structure, 1.8 Å"}, "[2]": {"target": "human PD-1 extracellular domain (crystal structure construct) (human) (UniProt Q15116)", "test": "crystal structure (figure legend)"}}, "note": "No constants are given. Whether binding was seen depends on the method and setting. Some entries that bind do so weakly or less than the wild type."}
{"binder": "B1", "values": [{"measurement": "binding", "setting": "[1]", "result": "binds"}, {"measurement": "binding", "setting": "[2]", "result": "binds"}]}
